# Data as given in PubChem BioAssay AID1224830 (NIAID, 2016)
# Test: 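Genes whose knock-down alters the TNF-alpha reporter response to LPS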 (primary screen)
# System: human THP-1 monocytic leukaemia cells, TNF dual-luciferase reporter clone, PMA-differentiated to macrophage-like cells
# Reagent: siRNA pool against human genes, 50 nM
# Duration: LPS for 4 h, given about 3 days after siRNA transfection
# Treatment: bacterial LPS (TLR4 ligand), 10 ng/ml
# Read-out: 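Ratio of firefly to renilla light, scaled to the plate median and expressed as a robust z-score per replicate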
# Direction: TNF reporter robust z-score: higher = stronger TNF reporter response to LPS
# Rule for the call: 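Each well counts as active if its z-score is over 2.8 or under -1.5; controls are left without a call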
# This is an unselected part of about 18,000 deposited reagents. In the full data, about 2,900 (16%) are marked active. 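Calls are made per well; low scores hint the gene aids the LPS response, high scores that it dampens it.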 Unmarked entries are inactive. Repeated entries: four replicate wells of each siRNA pool. No sequences are given here.
target gene,PubChem SID,TNF reporter robust z-score
DUSP23 (dual specificity phosphatase 23),SID315457279,0.15
DUSP23 (dual specificity phosphatase 23),SID315457279,0.09
DUSP23 (dual specificity phosphatase 23),SID315457279,-0.09
DUSP23 (dual specificity phosphatase 23),SID315457279,-0.21
LOC284009,SID315463723,-0.74
LOC284009,SID315463723,-0.88
LOC284009,SID315463723,-1.42
LOC284009,SID315463723,-0.66
VWA8 (von Willebrand factor A domain containing 8),SID315454974,-0.1
VWA8 (von Willebrand factor A domain containing 8),SID315454974,-0.55
VWA8 (von Willebrand factor A domain containing 8),SID315454974,-0.28
VWA8 (von Willebrand factor A domain containing 8),SID315454974,1.66
KDELR2 (KDEL endoplasmic reticulum protein retention receptor 2),SID315454533,0.21
KDELR2 (KDEL endoplasmic reticulum protein retention receptor 2),SID315454533,0.12
KDELR2 (KDEL endoplasmic reticulum protein retention receptor 2),SID315454533,0.02
KDELR2 (KDEL endoplasmic reticulum protein retention receptor 2),SID315454533,-0.04
GALNT11 (polypeptide N-acetylgalactosaminyltransferase 11),SID315458767,-0.25
GALNT11 (polypeptide N-acetylgalactosaminyltransferase 11),SID315458767,0.55
GALNT11 (polypeptide N-acetylgalactosaminyltransferase 11),SID315458767,0.18
GALNT11 (polypeptide N-acetylgalactosaminyltransferase 11),SID315458767,0.81
AHRR (aryl hydrocarbon receptor repressor),SID315458415,-1.17
AHRR (aryl hydrocarbon receptor repressor),SID315458415,-0.48
AHRR (aryl hydrocarbon receptor repressor),SID315458415,-1.25
AHRR (aryl hydrocarbon receptor repressor),SID315458415,-0.95
ZNF280B (zinc finger protein 280B),SID315462154,-0.97
ZNF280B (zinc finger protein 280B),SID315462154,-0.55
ZNF280B (zinc finger protein 280B),SID315462154,-0.4
ZNF280B (zinc finger protein 280B),SID315462154,-0.76
VPS13D (vacuolar protein sorting 13 homolog D),SID315457478,-0.05
VPS13D (vacuolar protein sorting 13 homolog D),SID315457478,-0.31
VPS13D (vacuolar protein sorting 13 homolog D),SID315457478,-1.12
VPS13D (vacuolar protein sorting 13 homolog D),SID315457478,-0.5
"MRTO4 (MRT4 homolog, ribosome maturation factor)",SID315456515,-1.29
"MRTO4 (MRT4 homolog, ribosome maturation factor)",SID315456515,-0.96
"MRTO4 (MRT4 homolog, ribosome maturation factor)",SID315456515,-0.18
"MRTO4 (MRT4 homolog, ribosome maturation factor)",SID315456515,-0.53
COMMD10 (COMM domain containing 10),SID315456693,2.05
COMMD10 (COMM domain containing 10),SID315456693,2.51
COMMD10 (COMM domain containing 10),SID315456693,0.66
COMMD10 (COMM domain containing 10),SID315456693,-0.72
CHMP4A (charged multivesicular body protein 4A),SID315456125,-0.65
CHMP4A (charged multivesicular body protein 4A),SID315456125,0.76
CHMP4A (charged multivesicular body protein 4A),SID315456125,0.39
CHMP4A (charged multivesicular body protein 4A),SID315456125,0.14
ZSCAN22 (zinc finger and SCAN domain containing 22),SID315464144,0.88
ZSCAN22 (zinc finger and SCAN domain containing 22),SID315464144,1.02
ZSCAN22 (zinc finger and SCAN domain containing 22),SID315464144,0.19
ZSCAN22 (zinc finger and SCAN domain containing 22),SID315464144,-0.17
BDKRB1 (bradykinin receptor B1),SID315447538,-0.54
BDKRB1 (bradykinin receptor B1),SID315447538,-1.11
BDKRB1 (bradykinin receptor B1),SID315447538,-0.14
BDKRB1 (bradykinin receptor B1),SID315447538,-1.23
KSR1 (kinase suppressor of ras 1),SID315452870,-0.34
KSR1 (kinase suppressor of ras 1),SID315452870,-0.24
KSR1 (kinase suppressor of ras 1),SID315452870,-0.17
KSR1 (kinase suppressor of ras 1),SID315452870,0.04
SRGAP1 (SLIT-ROBO Rho GTPase activating protein 1),SID315458436,-0.26
SRGAP1 (SLIT-ROBO Rho GTPase activating protein 1),SID315458436,0.14
SRGAP1 (SLIT-ROBO Rho GTPase activating protein 1),SID315458436,-0.49
SRGAP1 (SLIT-ROBO Rho GTPase activating protein 1),SID315458436,-0.2

16 consecutive records from above, quoted:
target gene,PubChem SID,TNF reporter robust z-score
DUSP23 (dual specificity phosphatase 23),SID315457279,-0.21
LOC284009,SID315463723,-0.74
LOC284009,SID315463723,-0.88
LOC284009,SID315463723,-1.42
LOC284009,SID315463723,-0.66
VWA8 (von Willebrand factor A domain containing 8),SID315454974,-0.1
VWA8 (von Willebrand factor A domain containing 8),SID315454974,-0.55
VWA8 (von Willebrand factor A domain containing 8),SID315454974,-0.28
VWA8 (von Willebrand factor A domain containing 8),SID315454974,1.66
KDELR2 (KDEL endoplasmic reticulum protein retention receptor 2),SID315454533,0.21
KDELR2 (KDEL endoplasmic reticulum protein retention receptor 2),SID315454533,0.12
KDELR2 (KDEL endoplasmic reticulum protein retention receptor 2),SID315454533,0.02
KDELR2 (KDEL endoplasmic reticulum protein retention receptor 2),SID315454533,-0.04
GALNT11 (polypeptide N-acetylgalactosaminyltransferase 11),SID315458767,-0.25
GALNT11 (polypeptide N-acetylgalactosaminyltransferase 11),SID315458767,0.55
GALNT11 (polypeptide N-acetylgalactosaminyltransferase 11),SID315458767,0.18

The listing continues.
target gene,PubChem SID,TNF reporter robust z-score
MPZ (myelin protein zero),SID315450033,0.3
MPZ (myelin protein zero),SID315450033,-0.03
MPZ (myelin protein zero),SID315450033,-0.57
MPZ (myelin protein zero),SID315450033,0.68
PRR5 (proline rich 5),SID315457716,-0.11
PRR5 (proline rich 5),SID315457716,1.64
PRR5 (proline rich 5),SID315457716,1.33
PRR5 (proline rich 5),SID315457716,1.5
AGBL4 (AGBL carboxypeptidase 4),SID315460535,-0.34
AGBL4 (AGBL carboxypeptidase 4),SID315460535,0.12
AGBL4 (AGBL carboxypeptidase 4),SID315460535,-0.76
AGBL4 (AGBL carboxypeptidase 4),SID315460535,-1.31
S1PR1 (sphingosine-1-phosphate receptor 1),SID315448430,-0.84
S1PR1 (sphingosine-1-phosphate receptor 1),SID315448430,-0.61
S1PR1 (sphingosine-1-phosphate receptor 1),SID315448430,-0.65
S1PR1 (sphingosine-1-phosphate receptor 1),SID315448430,-0.31
INPP4A (inositol polyphosphate-4-phosphatase type I A),SID315449513,-0.57
INPP4A (inositol polyphosphate-4-phosphatase type I A),SID315449513,0.05
INPP4A (inositol polyphosphate-4-phosphatase type I A),SID315449513,-0.22
INPP4A (inositol polyphosphate-4-phosphatase type I A),SID315449513,-0.53
OGFOD1,SID315457525,-1.73 (active)
OGFOD1,SID315457525,-0.49
OGFOD1,SID315457525,-0.09
OGFOD1,SID315457525,-0.51
IAH1 (isoamyl acetate hydrolyzing esterase 1 (putative)),SID315463822,17 (active)
IAH1 (isoamyl acetate hydrolyzing esterase 1 (putative)),SID315463822,15.5 (active)
IAH1 (isoamyl acetate hydrolyzing esterase 1 (putative)),SID315463822,15.4 (active)
IAH1 (isoamyl acetate hydrolyzing esterase 1 (putative)),SID315463822,12.9 (active)
PMP2 (peripheral myelin protein 2),SID315450662,2.55
PMP2 (peripheral myelin protein 2),SID315450662,6.15 (active)
PMP2 (peripheral myelin protein 2),SID315450662,2.08
PMP2 (peripheral myelin protein 2),SID315450662,1.33
KRTAP5-1 (keratin associated protein 5-1),SID315464429,1.1
KRTAP5-1 (keratin associated protein 5-1),SID315464429,0.53
KRTAP5-1 (keratin associated protein 5-1),SID315464429,0.7
KRTAP5-1 (keratin associated protein 5-1),SID315464429,1.69
CYB5B (cytochrome b5 type B),SID315459810,0.02
CYB5B (cytochrome b5 type B),SID315459810,-0.79
CYB5B (cytochrome b5 type B),SID315459810,-0.25
CYB5B (cytochrome b5 type B),SID315459810,0.78
ZNF613 (zinc finger protein 613),SID315459550,0.74
ZNF613 (zinc finger protein 613),SID315459550,-0.84
ZNF613 (zinc finger protein 613),SID315459550,-0.56
ZNF613 (zinc finger protein 613),SID315459550,-0.59
ZFP42 (ZFP42 zinc finger protein),SID315461924,-0.81
ZFP42 (ZFP42 zinc finger protein),SID315461924,-0.46
ZFP42 (ZFP42 zinc finger protein),SID315461924,-0.56
ZFP42 (ZFP42 zinc finger protein),SID315461924,-0.59
TPST1 (tyrosylprotein sulfotransferase 1),SID315452578,0.49
TPST1 (tyrosylprotein sulfotransferase 1),SID315452578,-1
TPST1 (tyrosylprotein sulfotransferase 1),SID315452578,-0.51
TPST1 (tyrosylprotein sulfotransferase 1),SID315452578,-0.49
TMEM151A (transmembrane protein 151A),SID315463528,1.88
TMEM151A (transmembrane protein 151A),SID315463528,0.65
TMEM151A (transmembrane protein 151A),SID315463528,0.72
TMEM151A (transmembrane protein 151A),SID315463528,0.73
LYPD6B (LY6/PLAUR domain containing 6B),SID315461868,0.23
LYPD6B (LY6/PLAUR domain containing 6B),SID315461868,0.82
LYPD6B (LY6/PLAUR domain containing 6B),SID315461868,-0.58
LYPD6B (LY6/PLAUR domain containing 6B),SID315461868,-0.47
ZSCAN29 (zinc finger and SCAN domain containing 29),SID315462264,0.52
ZSCAN29 (zinc finger and SCAN domain containing 29),SID315462264,1.4
ZSCAN29 (zinc finger and SCAN domain containing 29),SID315462264,0.24
ZSCAN29 (zinc finger and SCAN domain containing 29),SID315462264,0.59
CP (ceruloplasmin),SID315448059,0.18
CP (ceruloplasmin),SID315448059,1.29
CP (ceruloplasmin),SID315448059,1.11
CP (ceruloplasmin),SID315448059,1.62
PRSS16 (serine protease 16),SID315453970,-1.16
PRSS16 (serine protease 16),SID315453970,1.59
PRSS16 (serine protease 16),SID315453970,-0.68
PRSS16 (serine protease 16),SID315453970,-0.86
MMP28 (matrix metallopeptidase 28),SID315459229,-0.64
MMP28 (matrix metallopeptidase 28),SID315459229,-0.53
MMP28 (matrix metallopeptidase 28),SID315459229,-0.79
MMP28 (matrix metallopeptidase 28),SID315459229,1.11
ANAPC10 (anaphase promoting complex subunit 10),SID315454052,-0.41
ANAPC10 (anaphase promoting complex subunit 10),SID315454052,0.55
ANAPC10 (anaphase promoting complex subunit 10),SID315454052,0.1
ANAPC10 (anaphase promoting complex subunit 10),SID315454052,0.45
